Source: patent US20220119540A1 (NANJING GENSCRIPT BIOTECH, published 2022)
These are yes or no findings as the source states them, for the method shown. Binding can be weak; no strength is given.

Columns and labels:
[1] = target: Recombinant monkey OX-40 protein (monkey); test: ELISA on coated recombinant protein
[2] = target: Recombinant monkey OX-40 protein (monkey); test: ELISA; plate coated with recombinant monkey OX-40 protein, antibody from 1000 ng/ml in 3-fold dilutions, HRP goat anti-human Fab, OD450

Binder | binding [1] | binding [2]
AH02913 humanized anti-human OX40 monoclonal antibody (recombinant human IgG1/kappa) (antibody, V domains shown) VH: QVQLVQSGPEVKKPGASVKVSCKASGYTFTDYSMHWVKQAPGQGLEWMGWISTETGEPTYADDFKGRVTITLDTSASTAYMELSSLRSEDTAVYFCARVRPWYLAVWGQGTLVTVSS VL: DIQMTQSPSSLSASVGDRVTITCRASQDISNYLNWYQQKPGKAVKLLIYYTSRLYSGVPSRFSGSGSGTDYTFTISSLQPEDIATYFCQQANTLPLTFGGGTKLEIK | binds | binds
AH02916 humanized anti-human OX40 monoclonal antibody (recombinant human IgG1/kappa) (antibody, V domains shown) VH: QVQLVQSGAEVKKPGASVKVSCKASGYTFTDYSMHWVKQAPGQGLEWMGWISTETGEPTYADDFKGRVTITLDTSASTAYMELSSLRSEDTAVYYCARVRPWYLAVWGQGTLVTVSS VL: DIQMTQSPSSLSASVGDRVTITCRASQDISNYLNWYQQKPGKAVKLLIYYTSRLYSGVPSRFSGSGSGTDYTFTISSLQPEDIATYFCQQANTLPLTFGGGTKLEIK | binds | binds

More lines, now with the values ahead:

binding [1] | binding [2] | Binder
binds | binds | Chimeric antibody (anti-human OX40, recombinant, human IgG1/kappa constant regions) (antibody, V domains shown) VH: QIQLVQSGPELKKPGETVKISCKASGYTFTDYSMHWVKQAPGKGLKWMGWISTETGEPTYADDFKGRFAFSLETSASTAYLQIKNLKNEDTASYFCARVRPWYLAVWGAGTTVTVSS VL: DIQMTQTTSSLSASLGDRVTISCRASQDISNYLNWYQQKPDGTVKLLIYYTSRLYSGVPSRFSGSGSGADYSLTVSNLEQEDIATYFCQQANTLPLTFGAGTKLELK
binds | binds | AH02923 humanized anti-human OX40 monoclonal antibody (recombinant human IgG1/kappa) (antibody, V domains shown) VH: QVQLVQSGAEVKKPGASVKVSCKASGYTFTDYSMHWVRQAPGQGLEWMGWISTETGEPTYADDFKGRFTFTLDTSASTAYLELSSLRSEDTAVYYCARVRPWYLAVWGQGTLVTVSS VL: DIQMTQSPSSLSASVGDRVTITCRASQDISNYLNWYQQKPGKAVKLLIYYTSRLYSGVPSRFSGSGSGTDYTFTISSLQPEDIATYYCQQANTLPLTFGGGTKLEIK
binds | binds | AH02919 humanized anti-human OX40 monoclonal antibody (recombinant human IgG1/kappa) (antibody, V domains shown) VH: QVQLVQSGAEVKKPGASVKVSCKASGYTFTDYSMHWVKQAPGQGLEWMGWISTETGEPTYADDFKGRVTITRDTSASTAYLEISSLRSEDTAVYFCARVRPWYLAVWGQGTLVTVSS VL: DIQMTQSPSSLSASVGDRVTITCRASQDISNYLNWYQQKPGKAVKLLIYYTSRLYSGVPSRFSGSGSGTDYTLTISSLQPEDIATYYCQQANTLPLTFGGGTKLEIK
binds | binds | AH02921 humanized anti-human OX40 monoclonal antibody (recombinant human IgG1/kappa) (antibody, V domains shown) VH: QVQLVQSGPEVKKPGASVKVSCKASGYTFTDYSMHWVRQAPGQGLEWMGWISTETGEPTYADDFKGRFTITLDTSASTAYLEISSLRSEDTAVYFCARVRPWYLTVWGQGTLVTVSS VL: DIQMTQSPSSLSASVGDRVTITCRASQDISNYLNWYQQKPGKAPKLLIYYTSRLYSGVPSRFSGSGSGTDYTLTISSLQPEDIATYFCQQANTLPLTFGGGTKLEIK
